Data: article PMC7225089, “A long lost key opens an ancient lock: Drosophila Myb causes a synthetic multivulval phenotype in nematodes” (Biology Open, 2020)
These are yes or no findings as the source states them, for the method shown. Some binding calls cover weakened binding; strength is not graded here. For some assays here: Sequences can lack the tags named with a protein.

B1: C. elegans LIN9 Myb-binding domain (residues 442-559) (domain or fragment, UniProt P30630 442-559)
chain: EMVGNFPLKFLVNLVKLTKLIDIKKGLIRQLNELNADAEIQNMTSDKYSKAFQEKYAKTIIDLEHVNQNIDINMNGIQDHHMYFSSNDISTSNMKPEAVRQMCSQQAGRFVEHCNQGL

Experiments:
[1] = molecular target: T1, C. elegans LIN52 Myb-binding domain (residues 75-139), GST fusion (C. elegans) (UniProt Q10120); assay: co-purification; untagged LIN9 co-expressed in E. coli with GST-LIN52; heterodimer purified on glutathione-sepharose (40 mM Tris, 150 mM NaCl, 1 mM DTT, pH 8.0), anion exchange, TEV cleavage, Superdex 200
T1 sequence: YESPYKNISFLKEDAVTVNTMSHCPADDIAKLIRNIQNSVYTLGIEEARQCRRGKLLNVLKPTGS

[2] = molecular target: T2, C. elegans LIN9-LIN52 heterodimeric Myb-binding domain complex (C. elegans) (UniProt P30630+Q10120); assay: condition: Myb fragment ~500 μM in the syringe, LIN9-LIN52 ~25–50 μM; ITC; Myb fragment (~500 μM) in the syringe injected into LIN9-LIN52 heterodimer (~25–50 μM) at 25°C; 20 mM Tris, 150 mM NaCl, 1 mM beta mercaptoethanol, pH 8.0; MicroCal VP-ITC; triplicate; both purified
T2 sequence 1: B1 chain
T2 sequence 2: T1 sequence

Row | binding [1] | binding [2] | Binder
1 | binds |  | B1
2 |  | no binding | VIDPKWARVACGKSRAAMFMEEQAYACLKNL (domain or fragment, UniProt P04197 602-632)
